Measured data: PubChem BioAssay AID1159584 (Peter MacCallum Cancer Centre, 2016)
Screen: 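Genes whose loss is lethal only together with E-cadherin loss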 (primary screen). Cell system: human MCF10A breast epithelial cells, parental and CDH1-null. Reagent: siRNA against human genes. Measurement: 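ATP luminescence (CellTiter-Glo) viability per line relative to mean mock wells over all plates, and the ratio of CDH1-null to parental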. Direction: CDH1-null / parental viability ratio: higher = CDH1-null cells survive relatively better than parental.
Here is an unselected part of about 18,000 reagents tested. Not all columns of the deposit are shown. Not stated in the record: the amount of reagent, the time to read-out.

gene | CDH1-null / parental viability ratio
SLC9A5 (GeneID 6553) | 1.06
GRIK4 (GeneID 2900) | 1.13
FANCD2OS (GeneID 115795) | 1.13
RPL13A (GeneID 23521) | 1.21
NR1H4 (GeneID 9971) | 1.03
MAGEB10 (GeneID 139422) | 1.06
PECAM1 (GeneID 5175) | 0.82
THUMPD2 (GeneID 80745) | 0.97
UPB1 (GeneID 51733) | 0.75
NARS1 (GeneID 4677) | 0.95
DUSP13B (GeneID 51207) | 1.46
KLHDC8B (GeneID 200942) | 0.92
MANEAL (GeneID 149175) | 0.38
TMPO (GeneID 7112) | 0.98
ZBTB17 (GeneID 7709) | 0.92
GIT2 (GeneID 9815) | 1.11
URM1 (GeneID 81605) | 0.61
GIPC2 (GeneID 54810) | 1.03
PBXIP1 (GeneID 57326) | 0.87
ZKSCAN1 (GeneID 7586) | 0.88
SACK1F (GeneID 113828) | 0.98
SEMA6B (GeneID 10501) | 1
XAF1 (GeneID 54739) | 0.96
AMPH (GeneID 273) | 1.02
KIR3DS1 (GeneID 3813) | 1.15
MDP1 (GeneID 145553) | 1.18
HLF (GeneID 3131) | 1.03
ACAA2 (GeneID 10449) | 0.8
MFSD2B (GeneID 388931) | 0.94
RLN1 (GeneID 6013) | 1.1
KLHL3 (GeneID 26249) | 1.14
APOBEC3D (GeneID 140564) | 0.83
HTRA3 (GeneID 94031) | 1.21
ABCG5 (GeneID 64240) | 0.8
SMARCB1 (GeneID 6598) | 1.04
MSH4 (GeneID 4438) | 0.74
METTL3 (GeneID 56339) | 1.07
EML5 (GeneID 161436) | 0.92
ZNF568 (GeneID 374900) | 1.61
SKIC2 (GeneID 6499) | 1.06
PIGT (GeneID 51604) | 1.19
DDX1 (GeneID 1653) | 1
LZTR1 (GeneID 8216) | 1.12
CAB39 (GeneID 51719) | 1.27
SDSL (GeneID 113675) | 1.07
GPM6B (GeneID 2824) | 0.96

Ordered by “CDH1-null / parental viability ratio” (high to low): 6 of the entries above.
gene | CDH1-null / parental viability ratio
ZNF568 (GeneID 374900) | 1.61
PIGT (GeneID 51604) | 1.19
METTL3 (GeneID 56339) | 1.07
SKIC2 (GeneID 6499) | 1.06
EML5 (GeneID 161436) | 0.92
MSH4 (GeneID 4438) | 0.74
